# Assay results from the supplement of paper PMC8728848.
# This is one part of the list.
# B1: Blon0732mut (Bifidobacterium longum) (protein)
# chain: MPTSEHKADDATRHLTLIPAPVTLEYTHGTALIGPLVTIEDADQSWETLPIEQLSDELRHRYGVTVLRRRTHGTVISLGLDSRLAHDEYTLDVSESEGIRVRGGGESGLRYGLQTLRQIIGQTSRAIPCLHIQDKPAFAVRAYSLDVTRGRVPTMEFLTWFVDQLALYKYNQFQLYVEHAFAFVELSEAWRGTDPLTAADITYLDEYCARRGIELVPSLATFGHMYMNLRTREHRGLGEFPEDADRPFSFIERMEHHTLNAADPKAHDFASRLIEEYAPLFRSKSFNIGGNETFDLGRGRSAQDAPEAGRDELYAGFVRDLCETLARHGRQPMLWADIALESPRTMDLLPGDITMLNWMYEPQIDESKIQTIATQGRRQFVCPAVRAWSRFFPDYAGAWLNTYHMALAGTKYDAEGMVVTDWGDYGHVNDPRLSVPGLCYGAQNAWNPIEIDAHEMNRRISALVYGDESGRIMDCLARIDSDGVSFPWDLAVQVLELEYGSGTGALNMDVAACMERSSGGKLTLDRTLGCDDARRRMLQWNRERIERRRDCDQVLRDCGDAFAGLDKGGLTAEFLSVMLDGQRLFNELGEELLALADGKDVGSGANRLAADLELWFERYRAQWLSVGRHAELARIAHVVWSLADILRRGAL
# Key:
# Assay in all cases: glycan array binding signal (z-score within array); higher = stronger binding
# Conditions in all cases: glycan notation: IUPAC condensed, linker removed
# [1] = molecular target: Gal(b1-4)GlcNAc(b1-3)Gal(b1-4)GlcNAc(b1-2)[Gal(b1-4)GlcNAc(b1-3)Gal(b1-4)GlcNAc(b1-6)]Man(a1-6)[Gal(b1-4)GlcNAc(b1-3)Gal(b1-4)GlcNAc(b1-2)Man(a1-3)]Man(b1-4)GlcNAc(b1-4)[Fuc(a1-6)]GlcNAc
# Method in brief: (§1)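 Arrays were curated from the Consortium for Functional Glycomics database, 3228 in total, and kept only where the protein sequence was available. Binding is expressed as a within-array Z-score. This score was averaged across arrays of the same protein sequence at different concentrations or buffers and across linkers, and negative values can be read as non-binding.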
# [2] = molecular target: Gal(b1-4)GlcNAc(b1-3)Gal(b1-4)GlcNAc(b1-3)Gal(b1-4)GlcNAc
# Method in brief: as §1
# [3] = molecular target: Gal(b1-4)GlcNAc(b1-3)Gal(b1-4)GlcNAc(b1-3)Gal(b1-4)GlcNAc(b1-2)Man(a1-3)[Gal(b1-4)GlcNAc(b1-3)Gal(b1-4)GlcNAc(b1-3)Gal(b1-4)GlcNAc(b1-2)Man(a1-6)]Man(b1-4)GlcNAc(b1-4)GlcNAc
# Method in brief: as §1
# [4] = molecular target: Gal(b1-4)GlcNAc(b1-3)Gal(b1-4)GlcNAc(b1-3)Gal(b1-4)GlcNAc(b1-2)Man(a1-3)[Gal(b1-4)GlcNAc(b1-3)Gal(b1-4)GlcNAc(b1-3)Gal(b1-4)GlcNAc(b1-2)Man(a1-6)]Man(b1-4)GlcNAc(b1-4)[Fuc(a1-6)]GlcNAc
# Method in brief: as §1
# [5] = molecular target: Gal(b1-4)GlcNAc(b1-3)Gal(b1-4)GlcNAc(b1-3)Gal(b1-4)GlcNAc(b1-2)[Gal(b1-4)GlcNAc(b1-3)Gal(b1-4)GlcNAc(b1-3)Gal(b1-4)GlcNAc(b1-6)]Man(a1-6)[Gal(b1-4)GlcNAc(b1-3)Gal(b1-4)GlcNAc(b1-3)Gal(b1-4)GlcNAc(b1-2)Man(a1-3)]Man(b1-4)GlcNAc(b1-4)[Fuc(a1-6)]GlcNAc
# Method in brief: as §1
# [6] = molecular target: Gal(b1-4)GlcNAc(b1-3)Gal(b1-4)GlcNAc(b1-3)Gal(b1-4)GlcNAc(b1-3)Gal(b1-4)GlcNAc(b1-2)Man(a1-3)[Gal(b1-4)GlcNAc(b1-3)Gal(b1-4)GlcNAc(b1-3)Gal(b1-4)GlcNAc(b1-3)Gal(b1-4)GlcNAc(b1-2)Man(a1-6)]Man(b1-4)GlcNAc(b1-4)GlcNAc
# Method in brief: as §1
# [7] = molecular target: Gal(b1-4)GlcNAc(b1-3)Gal(b1-4)GlcNAc(b1-3)Gal(b1-4)GlcNAc(b1-3)Gal(b1-4)GlcNAc(b1-2)Man(a1-3)[Gal(b1-4)GlcNAc(b1-3)Gal(b1-4)GlcNAc(b1-3)Gal(b1-4)GlcNAc(b1-3)Gal(b1-4)GlcNAc(b1-2)Man(a1-6)]Man(b1-4)GlcNAc(b1-4)[Fuc(a1-6)]GlcNAc
# Method in brief: as §1
# [8] = molecular target: Gal(b1-4)GlcNAc(b1-3)Gal(b1-4)GlcNAc(b1-3)Gal(b1-4)GlcNAc(b1-3)Gal(b1-4)GlcNAc(b1-2)[Gal(b1-4)GlcNAc(b1-3)Gal(b1-4)GlcNAc(b1-3)Gal(b1-4)GlcNAc(b1-3)Gal(b1-4)GlcNAc(b1-6)]Man(a1-6)[Gal(b1-4)GlcNAc(b1-3)Gal(b1-4)GlcNAc(b1-3)Gal(b1-4)GlcNAc(b1-3)Gal(b1-4)GlcNAc(b1-2)Man(a1-3)]Man(b1-4)GlcNAc(b1-4)[Fuc(a1-6)]GlcNAc
# Method in brief: as §1
# [9] = molecular target: Gal(b1-4)GlcNAc(b1-3)Gal(b1-4)GlcNAc(b1-3)Gal(b1-4)GlcNAc(b1-3)Gal(b1-4)GlcNAc(b1-3)Gal(b1-4)GlcNAc(b1-2)Man(a1-3)[Gal(b1-4)GlcNAc(b1-3)Gal(b1-4)GlcNAc(b1-3)Gal(b1-4)GlcNAc(b1-3)Gal(b1-4)GlcNAc(b1-3)Gal(b1-4)GlcNAc(b1-2)Man(a1-6)]Man(b1-4)GlcNAc(b1-4)GlcNAc
# Method in brief: as §1
# [10] = molecular target: Gal(b1-4)GlcNAc(b1-3)Gal(b1-4)GlcNAc(b1-3)Gal(b1-4)GlcNAc(b1-3)Gal(b1-4)GlcNAc(b1-3)Gal(b1-4)GlcNAc(b1-2)Man(a1-3)[Gal(b1-4)GlcNAc(b1-3)Gal(b1-4)GlcNAc(b1-3)Gal(b1-4)GlcNAc(b1-3)Gal(b1-4)GlcNAc(b1-3)Gal(b1-4)GlcNAc(b1-2)Man(a1-6)]Man(b1-4)GlcNAc(b1-4)[Fuc(a1-6)]GlcNAc
# Method in brief: as §1
# [11] = molecular target: Gal(b1-4)GlcNAc(b1-3)Gal(b1-4)GlcNAc(b1-3)Gal(b1-4)GlcNAc(b1-3)Gal(b1-4)GlcNAc(b1-3)Gal(b1-4)GlcNAc(b1-2)[Gal(b1-4)GlcNAc(b1-3)Gal(b1-4)GlcNAc(b1-3)Gal(b1-4)GlcNAc(b1-3)Gal(b1-4)GlcNAc(b1-3)Gal(b1-4)GlcNAc(b1-6)]Man(a1-6)[Gal(b1-4)GlcNAc(b1-3)Gal(b1-4)GlcNAc(b1-3)Gal(b1-4)GlcNAc(b1-3)Gal(b1-4)GlcNAc(b1-3)Gal(b1-4)GlcNAc(b1-2)Man(a1-3)]Man(b1-4)GlcNAc(b1-4)[Fuc(a1-6)]GlcNAc
# Method in brief: as §1
# [12] = molecular target: Gal(b1-4)GlcNAc(b1-3)Gal(b1-4)GlcNAc(b1-3)Gal(b1-4)GlcNAc(b1-3)Gal(b1-4)GlcNAc(b1-3)Gal(b1-4)GlcNAc(b1-3)Gal(b1-4)GlcNAc(b1-2)Man(a1-3)[Gal(b1-4)GlcNAc(b1-3)Gal(b1-4)GlcNAc(b1-3)Gal(b1-4)GlcNAc(b1-3)Gal(b1-4)GlcNAc(b1-3)Gal(b1-4)GlcNAc(b1-3)Gal(b1-4)GlcNAc(b1-2)Man(a1-6)]Man(b1-4)GlcNAc(b1-4)GlcNAc
# Method in brief: as §1
# [13] = molecular target: Gal(b1-4)GlcNAc(b1-3)Gal(b1-4)GlcNAc(b1-3)GalNAc
# Method in brief: as §1
# [14] = molecular target: Gal(b1-4)GlcNAc(b1-3)Gal(b1-4)GlcNAc(b1-3)[Gal(b1-4)GlcNAc(b1-3)Gal(b1-4)GlcNAc(b1-6)]GalNAc
# Method in brief: as §1
# [15] = molecular target: Gal(b1-4)GlcNAc(b1-3)Gal(b1-4)GlcNAc(b1-6)[Gal(b1-3)]GalNAc
# Method in brief: as §1
# [16] = molecular target: Gal(b1-4)GlcNAc(b1-3)Gal(b1-4)[Fuc(a1-3)]GlcNAc(b1-3)Gal(b1-4)[Fuc(a1-3)]GlcNAc
# Method in brief: as §1
# [17] = molecular target: Gal(b1-4)GlcNAc(b1-3)GalNAc
# Method in brief: as §1
# [18] = molecular target: Gal(b1-4)GlcNAc(b1-3)[Fuc(a1-3)GlcNAc(b1-6)]Gal(b1-4)Glc
# Method in brief: as §1
# [19] = molecular target: Gal(b1-4)GlcNAc(b1-3)[Gal(b1-4)GlcNAc(b1-6)]Gal(b1-4)GlcNAc
# Method in brief: as §1
# [20] = molecular target: Gal(b1-4)GlcNAc(b1-3)[GlcNAc(b1-6)]Gal(b1-4)GlcNAc
# Method in brief: as §1
# [21] = molecular target: Gal(b1-4)GlcNAc(b1-6)Gal(b1-4)GlcNAc
# Method in brief: as §1
# [22] = molecular target: Gal(b1-4)GlcNAc(b1-6)GalNAc
# Method in brief: as §1
# [23] = molecular target: Gal(b1-4)GlcNAc(b1-6)[Gal(b1-3)]GalNAc
# Method in brief: as §1
# [24] = molecular target: Gal(b1-4)GlcNAc(b1-6)[Gal(b1-4)GlcNAc(b1-3)]GalNAc
# Method in brief: as §1
# Gal(b1-4)GlcNAc6P = molecular target: Gal(b1-4)GlcNAc6P
# Method in brief: as §1
# Gal(b1-6)Gal = molecular target: Gal(b1-6)Gal
# Method in brief: as §1
# Gal3S(b1-3)GalNAc = molecular target: Gal3S(b1-3)GalNAc
# Method in brief: as §1
# Gal3S(b1-3)GlcNAc = molecular target: Gal3S(b1-3)GlcNAc
# Method in brief: as §1
# [25] = molecular target: Gal3S(b1-3)[Fuc(a1-4)]GlcNAc
# Method in brief: as §1
# Gal3S(b1-4)Glc = molecular target: Gal3S(b1-4)Glc
# Method in brief: as §1
binder,measurement,setting,value
B1,glycan array binding signal (z-score),[1],-1.22
same,glycan array binding signal (z-score),[2],0.655
same,glycan array binding signal (z-score),[3],1.2
same,glycan array binding signal (z-score),[4],-0.478
same,glycan array binding signal (z-score),[5],-1.31
same,glycan array binding signal (z-score),[6],-0.174
same,glycan array binding signal (z-score),[7],-0.514
same,glycan array binding signal (z-score),[8],0.066
same,glycan array binding signal (z-score),[9],0.957
same,glycan array binding signal (z-score),[10],1.92
same,glycan array binding signal (z-score),[11],0.154
same,glycan array binding signal (z-score),[12],-0.584
same,glycan array binding signal (z-score),[13],-0.371
same,glycan array binding signal (z-score),[14],0.572
same,glycan array binding signal (z-score),[15],0.446
same,glycan array binding signal (z-score),[16],-1.49
same,glycan array binding signal (z-score),[17],-0.424
same,glycan array binding signal (z-score),[18],0.274
same,glycan array binding signal (z-score),[19],-0.73
same,glycan array binding signal (z-score),[20],-0.639
same,glycan array binding signal (z-score),[21],-0.268
same,glycan array binding signal (z-score),[22],0.168
same,glycan array binding signal (z-score),[23],0.232
same,glycan array binding signal (z-score),[24],1.55
same,glycan array binding signal (z-score),Gal(b1-4)GlcNAc6P,0.292
same,glycan array binding signal (z-score),Gal(b1-6)Gal,-0.313
same,glycan array binding signal (z-score),Gal3S(b1-3)GalNAc,1.16
same,glycan array binding signal (z-score),Gal3S(b1-3)GlcNAc,1.39
same,glycan array binding signal (z-score),[25],-0.29
same,glycan array binding signal (z-score),Gal3S(b1-4)Glc,1.06

# 2 entries from above, as tab-separated lines:
binder	measurement	setting	value
B1	glycan array binding signal (z-score)	Gal3S(b1-3)GlcNAc	1.39
same	glycan array binding signal (z-score)	[25]	-0.29
